From publication PMC10907374, “G2019S selective LRRK2 kinase inhibitor abrogates mitochondrial DNA damage” (NPJ Parkinson's Disease, 2024)
For part of its entries the source gives two or more results. This list holds those alone. An entry can have further records. Values that stand side by side differ for a reason that is not stated; dose, time, organism, isomer or construct need not be as stated for each record.

Protein sequences, listed by entry. Tags and fused reporters are not part of them.
UniProt Q5S007, whole entry G2019S: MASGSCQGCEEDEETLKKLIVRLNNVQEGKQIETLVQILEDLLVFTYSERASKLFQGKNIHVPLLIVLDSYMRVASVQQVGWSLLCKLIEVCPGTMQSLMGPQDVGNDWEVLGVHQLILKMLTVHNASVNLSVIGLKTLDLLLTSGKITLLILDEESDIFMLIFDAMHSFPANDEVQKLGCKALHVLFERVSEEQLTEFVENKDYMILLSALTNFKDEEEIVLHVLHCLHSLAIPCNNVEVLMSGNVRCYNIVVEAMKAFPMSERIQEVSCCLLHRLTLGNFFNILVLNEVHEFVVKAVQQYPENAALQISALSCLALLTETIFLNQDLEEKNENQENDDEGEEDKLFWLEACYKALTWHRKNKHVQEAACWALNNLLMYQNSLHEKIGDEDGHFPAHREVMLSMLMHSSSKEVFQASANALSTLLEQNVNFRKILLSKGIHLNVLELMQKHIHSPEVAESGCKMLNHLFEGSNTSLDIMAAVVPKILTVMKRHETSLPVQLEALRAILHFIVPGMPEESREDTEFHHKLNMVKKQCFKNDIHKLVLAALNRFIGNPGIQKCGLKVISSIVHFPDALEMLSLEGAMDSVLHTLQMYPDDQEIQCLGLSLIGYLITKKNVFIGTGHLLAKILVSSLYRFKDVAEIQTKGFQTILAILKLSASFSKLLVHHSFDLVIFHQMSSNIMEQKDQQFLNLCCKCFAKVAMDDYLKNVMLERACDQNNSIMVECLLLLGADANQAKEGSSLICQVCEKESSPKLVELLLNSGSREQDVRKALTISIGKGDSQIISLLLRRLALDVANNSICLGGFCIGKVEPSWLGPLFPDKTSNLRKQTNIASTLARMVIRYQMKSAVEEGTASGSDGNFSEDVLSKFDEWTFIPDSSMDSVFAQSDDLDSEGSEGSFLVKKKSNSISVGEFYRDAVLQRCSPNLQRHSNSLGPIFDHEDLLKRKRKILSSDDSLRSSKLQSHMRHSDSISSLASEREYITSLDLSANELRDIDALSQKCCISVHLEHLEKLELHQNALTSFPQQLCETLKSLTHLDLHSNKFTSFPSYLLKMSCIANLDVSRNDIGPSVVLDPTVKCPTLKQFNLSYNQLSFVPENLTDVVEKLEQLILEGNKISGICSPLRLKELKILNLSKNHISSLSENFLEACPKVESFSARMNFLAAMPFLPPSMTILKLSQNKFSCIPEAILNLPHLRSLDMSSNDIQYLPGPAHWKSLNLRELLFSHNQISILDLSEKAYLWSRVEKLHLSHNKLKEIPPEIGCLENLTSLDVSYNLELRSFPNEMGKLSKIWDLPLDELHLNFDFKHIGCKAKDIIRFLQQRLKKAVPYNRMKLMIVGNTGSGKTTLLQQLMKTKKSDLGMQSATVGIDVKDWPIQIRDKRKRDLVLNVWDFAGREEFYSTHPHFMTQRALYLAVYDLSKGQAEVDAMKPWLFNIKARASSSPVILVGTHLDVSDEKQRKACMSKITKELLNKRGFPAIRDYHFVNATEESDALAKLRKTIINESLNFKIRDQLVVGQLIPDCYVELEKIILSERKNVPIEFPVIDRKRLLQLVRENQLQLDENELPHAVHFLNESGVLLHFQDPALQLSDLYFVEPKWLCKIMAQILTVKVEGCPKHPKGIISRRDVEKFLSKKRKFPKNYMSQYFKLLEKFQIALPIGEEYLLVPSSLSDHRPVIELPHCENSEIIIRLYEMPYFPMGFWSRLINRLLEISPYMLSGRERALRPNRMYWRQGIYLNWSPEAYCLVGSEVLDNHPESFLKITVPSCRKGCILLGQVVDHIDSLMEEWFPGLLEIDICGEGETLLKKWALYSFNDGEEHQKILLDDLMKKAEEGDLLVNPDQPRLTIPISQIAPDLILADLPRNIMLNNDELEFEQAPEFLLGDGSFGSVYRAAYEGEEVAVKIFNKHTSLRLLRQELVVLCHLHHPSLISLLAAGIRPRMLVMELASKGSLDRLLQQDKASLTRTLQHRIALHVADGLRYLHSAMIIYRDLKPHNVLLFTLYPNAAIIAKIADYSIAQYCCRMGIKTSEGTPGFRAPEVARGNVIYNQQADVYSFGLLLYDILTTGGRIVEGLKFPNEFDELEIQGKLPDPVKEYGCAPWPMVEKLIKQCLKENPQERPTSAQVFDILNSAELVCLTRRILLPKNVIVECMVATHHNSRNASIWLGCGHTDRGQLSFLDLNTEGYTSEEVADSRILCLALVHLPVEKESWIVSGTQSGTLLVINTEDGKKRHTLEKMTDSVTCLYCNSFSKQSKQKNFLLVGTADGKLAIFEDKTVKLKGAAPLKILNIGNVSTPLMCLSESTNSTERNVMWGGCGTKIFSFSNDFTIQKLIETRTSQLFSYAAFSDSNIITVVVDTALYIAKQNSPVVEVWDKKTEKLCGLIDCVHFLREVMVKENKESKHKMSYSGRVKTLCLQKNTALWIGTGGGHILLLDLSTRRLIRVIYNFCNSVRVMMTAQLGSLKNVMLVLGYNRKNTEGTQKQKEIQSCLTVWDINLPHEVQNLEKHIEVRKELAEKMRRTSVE

Target: G2019S variant of human LRRK2 (G2019S-LRRK2) (Homo sapiens, UniProt Q5S007, G2019S)
Test: LRRK2 pSer935 quantitative western immunoblot in HEK293 cells stably overexpressing G2019S-LRRK2
Assay type: cell-based
Details: 2 h

decrease in LRRK2 pSer935 levels (100 nM): over 50% and 65%
decrease in LRRK2 pSer935 levels (1 μM): full inhibition and 95%
Structure (SMILES): CC1=C(C(=O)Nc2ccc3[nH]nc(-c4ccnc(N5CCOCC5)c4)c3c2)C(C)(C)n2nnnc2N1C [EB-42168]
